This passage reports binding results from article PMC9867282.

The chains are these.
T1: FLAG-BirA*-CCP6 (cytosolic carboxypeptidase 6 fused to FLAG-tagged BirA*) (human) (UniProt Q5VU57)
T1 sequence: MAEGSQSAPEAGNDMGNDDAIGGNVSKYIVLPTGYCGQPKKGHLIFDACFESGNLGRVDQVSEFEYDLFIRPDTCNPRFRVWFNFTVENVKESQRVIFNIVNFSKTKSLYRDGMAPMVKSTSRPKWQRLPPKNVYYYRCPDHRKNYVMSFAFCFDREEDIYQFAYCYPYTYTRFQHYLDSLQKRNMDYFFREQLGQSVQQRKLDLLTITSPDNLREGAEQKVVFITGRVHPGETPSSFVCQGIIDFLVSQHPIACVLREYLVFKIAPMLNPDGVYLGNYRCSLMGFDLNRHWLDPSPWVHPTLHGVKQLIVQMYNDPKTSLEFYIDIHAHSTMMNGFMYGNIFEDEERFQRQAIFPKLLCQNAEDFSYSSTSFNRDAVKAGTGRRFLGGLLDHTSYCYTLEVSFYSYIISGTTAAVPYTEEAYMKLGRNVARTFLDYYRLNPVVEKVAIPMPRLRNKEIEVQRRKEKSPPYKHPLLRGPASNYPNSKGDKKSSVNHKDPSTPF

B1: KIAA0753 (protein, UniProt Q2KHM9 1-967)
chain: MGPGQPASTCVHLAPRTQLDGRSDPKVLQTQNQLQFNRNVPTHSSNLAIRYSCPHAIRIEKLKHSYNESYHCKDADCRVGPDLGSSVSFSVISQERLSYAVHLARRDVKRRQFEKHIKEHHLRSQPQSSQKCGHTKYKIPDHRVERKESKSQAACQCSHQPSKVEISSSGAKVYLYSSHPGQSDLTVPNSPPTHDPGLQPHPRIGDHKNISEQKSLLEVQRLQKELSSCIHKIEEVTKKDRLEEALDPDEERRIRIRRQEQAARSARMLYVLQQQVKEIQEELDKLSPHKIKHTKKSWAMSKLAAAHRGAIRALQMFVTQFTDRGEHPLPARCKELGSLIRQLSLCSVKLDADPSVPDVVIDILQQIEALESLLEKKLSPKKVKKCFSEIRSRFPIGSQKALERWPSTSPKGERRPLTAKDTFPQETSRPSVAKQLLADKYQPDTELPETQRLQSELDVLDADIVLEEGPFILDQSASFKDEVLAVAKTKAGKKKPVTENVPFRKKDTLAPARQQGLRKAERGRQSQPHSKSRVQQTTVSSRLKMNRQPVKDRKAPWIPPNPTSPPASPKCAAWLKVKTSPRDATKEPLQQEDPQEESHLTGAVEHEAARLAWLDAETSKRLKELEELKAKEIDSMQKQRLDWLDAETSRRTKELNELKAEEMYRLQQLSVSATHLADKVEEAVLDRLKPLLVKAQRVNSTTEANIHLKDGSSVNTAKAQPAQEVAAVDFESNNIRQLDDFLEDCASELWAVTHAKILGSETLATVEDSKDSPDLEIMMRRMEEMEKYQESVRQRYNKIAYADPRLWMQEENNDQKISAISEKPLSPHPIRITKTVDRKDPAVNIMLERPCNGNSLDESVGTEEGSEKREAPLLSLAEDSQQKEGRAPLFVPPGMQHSIGDYCSRFEQYLRIISHEAVGSFNPWLIAESFSEELVDEALGAVAAELQDMCEDYAEAVFTSEFLEAAT
B2: CCDC14 (protein, UniProt Q49A88 1-953)
chain: MKRGIRRDPFRKRKLGGRAKKVREPTAVNSFYREASLPSVWASLRRREMVRSGARPGQVLSSGRHTGPAKLTNGKKATYLRKIPRFNADSGYSIHSDSESQAETVHGLDGCASLLRDILRNEDSGSETAYLENRSNSRPLESKRYGSKKKRHEKHTIPLVVQKETSSSDNKKQIPNEASARSERDTSDLEQNWSLQDHYRMYSPIIYQALCEHVQTQMSLMNDLTSKNIPNGIPAVPCHAPSHSESQATPHSSYGLCTSTPVWSLQRPPCPPKVHSEVQTDGNSQFASQGKTVSATCTDVLRNSFNTSPGVPCSLPKTDISAIPTLQQLGLVNGILPQQGIHKETDLLKCIQTYLSLFRSHGKETHLDSQTHRSPTQSQPAFLATNEEKCAREQIREATSERKDLNIHVRDTKTVKDVQKAKNVNKTAEKVRIIKYLLGELKALVAEQEDSEIQRLITEMEACISVLPTVSGNTDIQVEIALAMQPLRSENAQLRRQLRILNQQLREQQKTQKPSGAVDCNLELFSLQSLNMSLQNQLEESLKSQELLQSKNEELLKVIENQKDENKKFSSIFKDKDQTILENKQQYDIEITRIKIELEEALVNVKSSQFKLETAEKENQILGITLRQRDAEVTRLRELTRTLQTSMAKLLSDLSVDSARCKPGNNLTKSLLNIHDKQLQHDPAPAHTSIMSYLNKLETNYSFTHSEPLSTIKNEETIEPDKTYENVLSSRGPQNSNTRGMEEASAPGIISALSKQDSDEGSETMALIEDEHNLDNTIYIPFARSTPEKKSPLSKRLSPQPQIRAATTQLVSNSGLAVSGKENKLCTPVICSSSTKEAEDAPEKLSRASDMKDTQLLKKIKEAIGKIPAATKEPEEQTACHGPSGCLSNSLQVKGNTVCDGSVFTSDLMSDWSISSFSTFTSRDEQDFRNGLAALDANIARLQKSLRTGLLEK
B3: KIF7 (protein, UniProt Q2M1P5 1-1343)
chain: MGLEAQRLPGAEEAPVRVALRVRPLLPKELLHGHQSCLQVEPGLGRVTLGRDRHFGFHVVLAEDAGQEAVYQACVQPLLEAFFEGFNATVFAYGQTGSGKTYTMGEASVASLLEDEQGIVPRAMAEAFKLIDENDLLDCLVHVSYLEVYKEEFRDLLEVGTASRDIQLREDERGNVVLCGVKEVDVEGLDEVLSLLEMGNAARHTGATHLNHLSSRSHTVFTVTLEQRGRAPSRLPRPAPGQLLVSKFHFVDLAGSERVLKTGSTGERLKESIQINSSLLALGNVISALGDPQRRGSHIPYRDSKITRILKDSLGGNAKTVMIACVSPSSSDFDETLNTLNYASRAQNIRNRATVNWRPEAERPPEETASGARGPPRHRSETRIIHRGRRAPGPATASAAAAMRLGAECARYRACTDAAYSLLRELQAEPGLPGAAARKVRDWLCAVEGERSALSSASGPDSGIESASVEDQAAQGAGGRKEDEGAQQLLTLQNQVARLEEENRDFLAALEDAMEQYKLQSDRLREQQEEMVELRLRLELVRPGWGGPRLLNGLPPGSFVPRPHTAPLGGAHAHVLGMVPPACLPGDEVGSEQRGEQVTNGREAGAELLTEVNRLGSGSSAASEEEEEEEEPPRRTLHLRRNRISNCSQRAGARPGSLPERKGPELCLEELDAAIPGSRAVGGSKARVQARQVPPATASEWRLAQAQQKIRELAINIRMKEELIGELVRTGKAAQALNRQHSQRIRELEQEAEQVRAELSEGQRQLRELEGKELQDAGERSRLQEFRRRVAAAQSQVQVLKEKKQATERLVSLSAQSEKRLQELERNVQLMRQQQGQLQRRLREETEQKRRLEAEMSKRQHRVKELELKHEQQQKILKIKTEEIAAFQRKRRSGSNGSVVSLEQQQKIEEQKKWLDQEMEKVLQQRRALEELGEELHKREAILAKKEALMQEKTGLESKRLRSSQALNEDIVRVSSRLEHLEKELSEKSGQLRQGSAQSQQQIRGEIDSLRQEKDSLLKQRLEIDGKLRQGSLLSPEEERTLFQLDEAIEALDAAIEYKNEAITCRQRVLRASASLLSQCEMNLMAKLSYLSSSETRALLCKYFDKVVTLREEQHQQQIAFSELEMQLEEQQRLVYWLEVALERQRLEMDRQLTLQQKEHEQNMQLLLQQSRDHLGEGLADSRRQYEARIQALEKELGRYMWINQELKQKLGGVNAVGHSRGGEKRSLCSEGRQAPGNEDELHLAPELLWLSPLTEGAPRTREETRDLVHAPLPLTWKRSSLCGEEQGSPEELRQREAAEPLVGRVLPVGEAGLPWNFGPLSKPRRELRRASPGMIDVRKNPL
B4: nonsense-mediated mRNA decay factor SMG7 (protein, UniProt Q92540 1-1137)
chain: MSLQSAQYLRQAEVLKADMTDSKLGPAEVWTSRQALQDLYQKMLVTDLEYALDKKVEQDLWNHAFKNQITTLQGQAKNRANPNRSEVQANLSLFLEAASGFYTQLLQELCTVFNVDLPCRVKSSQLGIISNKQTHTSAIVKPQSSSCSYICQHCLVHLGDIARYRNQTSQAESYYRHAAQLVPSNGQPYNQLAILASSKGDHLTTIFYYCRSIAVKFPFPAASTNLQKALSKALESRDEVKTKWGVSDFIKAFIKFHGHVYLSKSLEKLSPLREKLEEQFKRLLFQKAFNSQQLVHVTVINLFQLHHLRDFSNETEQHTYSQDEQLCWTQLLALFMSFLGILCKCPLQNESQEESYNAYPLPAVKVSMDWLRLRPRVFQEAVVDERQYIWPWLISLLNSFHPHEEDLSSISATPLPEEFELQGFLALRPSFRNLDFSKGHQGITGDKEGQQRRIRQQRLISIGKWIADNQPRLIQCENEVGKLLFITEIPELILEDPSEAKENLILQETSVIESLAADGSPGLKSVLSTSRNLSNNCDTGEKPVVTFKENIKTREVNRDQGRSFPPKEVRRDYSKGITVTKNDGKKDNNKRKTETKKCTLEKLQETGKQNVAVQVKSQTELRKTPVSEARKTPVTQTPTQASNSQFIPIHHPGAFPPLPSRPGFPPPTYVIPPPVAFSMGSGYTFPAGVSVPGTFLQPTAHSPAGNQVQAGKQSHIPYSQQRPSGPGPMNQGPQQSQPPSQQPLTSLPAQPTAQSTSQLQVQALTQQQQSPTKAVPALGKSPPHHSGFQQYQQADASKQLWNPPQVQGPLGKIMPVKQPYYLQTQDPIKLFEPSLQPPVMQQQPLEKKMKPFPMEPYNHNPSEVKVPEFYWDSSYSMADNRSVMAQQANIDRRGKRSPGVFRPEQDPVPRMPFEKSLLEKPSELMSHSSSFLSLTGFSLNQERYPNNSMFNEVYGKNLTSSSKAELSPSMAPQETSLYSLFEGTPWSPSLPASSDHSTPASQSPHSSNPSSLPSSPPTHNHNSVPFSNFGPIGTPDNRDRRTADRWKTDKPAMGGFGIDYLSATSSSESSWHQASTPSGTWTGHGPSMEDSSAVLMESLKSIWSSSMMHPGPSALEQLLMQQKQKQQRGQGTMNPPH

Results are given in words; binding and its absence hold for the method and conditions named. Binding seen in cells or lysates may run through a third protein. A yes stands for co-enrichment or nearness to the bait. Other partners may have been found. Where a sequence is shown, tags or fusion partners need not be part of it.

The assay has as its target T1, FLAG-BirA*-CCP6 (cytosolic carboxypeptidase 6 fused to FLAG-tagged BirA*) (human). Description: proximity labelling; BioID in Flp-In T-REX 293 stable cell pools expressing BirA*-CCP6; tetracycline 1 ug/mL 24 h, then 50 uM biotin 24 h; lysis in 2% SDS, 8 M urea; streptavidin agarose, on-bead trypsin, LC-MS/MS, LFQ; enrichment against GFP-BirA* (t-test, FDR 0.05); three biological replicates.
As for B1, the binding entry is given as “binds”.

For the molecule B2, the binding result was “binds”.

For B3, the binding entry was “binds”.

Regarding B4, the binding entry is “binds”.
